Record: PubChem BioAssay AID1159508 (Drosophila RNAi Screening Center, 2015)

- Assay: 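How silencing genes for RNA-binding proteins changes cellular ATP without other treatment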
- Cells: Drosophila S2R+ cells
- Reagent: long dsRNA against Drosophila genes
- Timing: 5 days
- Detection: 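Total ATP per well measured by luciferase luminescence after 5 days, expressed as z-scores for each replicate and as their average across up to three replicates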
- Direction: mean ATP z-score: higher = more total ATP luminescence
- Call rule: In these data the active calls have mean ATP z-score at about -2 or lower, or at about 2 or higher
- Meaning of the calls: active = strong ATP change (up or down); inactive = no strong ATP change
Here is a random part of 812 reagents tested. In the full data, 18 (2.2%) were called active. 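Calls include both increased and decreased ATP; roughly one in four reagents has no third replicate value.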 A number with no mark means an inactive call. Further read-outs or replicates are left out here. Reagent sequences are not shown. Not given: the amount of reagent.

mean ATP z-score, by gene and reagent
rin: DRSC22997 1.3; DRSC33099 1.66
Hrb98DE: DRSC24508 0.977; DRSC34919 0.602
Pus7: DRSC10703 0.0873; DRSC27484 -0.699
CG14718: DRSC14941 -0.0372; DRSC42697 0.632
CR33317: DRSC02653 0.335
mod: DRSC28409 0.198; DRSC42218 -0.105
Ski6: DRSC02491 -0.0918; DRSC36019 0.682
Tis11: DRSC23110 -0.344; DRSC34943 1.16
CG4884: DRSC15671 -0.368; DRSC26329 0.714
Srp54: DRSC03442 -0.687; DRSC32627 -0.495
cup: DRSC24610 0.0158; DRSC35662 0.761
cyp33: DRSC32449 -0.475; DRSC32450 -0.592
heph: DRSC16783 -0.665; DRSC39131 -0.544
nonA: DRSC27455 -0.7; DRSC41353 0.867

No new results follow: 10 of the entries above.
mean ATP z-score, by gene and reagent
mod: DRSC28409 0.198; DRSC42218 -0.105
Ski6: DRSC02491 -0.0918; DRSC36019 0.682
Tis11: DRSC23110 -0.344; DRSC34943 1.16
CG4884: DRSC15671 -0.368; DRSC26329 0.714
Srp54: DRSC03442 -0.687; DRSC32627 -0.495

Further entries:
mean ATP z-score, by gene and reagent
dsx: DRSC26707 0.0135; DRSC40763 -0.716
CG10909: DRSC14282 0.0803; DRSC33619 0.879
tra2: DRSC07708 -0.348; DRSC29704 -0.481
Lon: DRSC26015 -0.599; DRSC41205 -1.15
U4-U6-60K: DRSC10624 -0.0653; DRSC42502 -1.03
Rbm13: DRSC25416 0.461; DRSC33595 0.172
mRpL49: DRSC19908 -0.391; DRSC42017 0.986
bru2: DRSC32801 0.524; DRSC32802 -0.428
AGO1: DRSC30762 3.06 (active); DRSC39159 3.38 (active)
vig: DRSC03631 0.558; DRSC21672 0.699
CG32344: DRSC32057 -0.00408; DRSC32058 -0.323
maca: DRSC15738 -0.341; DRSC42701 -0.465
mIF2: DRSC14510 0.507; DRSC26368 -0.13
piwi: DRSC03592 0.497; DRSC42382 -0.29
barc: DRSC11792 -1.02; DRSC35410 0.0645
Rnmt: DRSC03558 0.53; DRSC42639 -0.615
mle: DRSC04921 -0.892; DRSC37605 -0.336
